These are yes or no findings as the source states them, for the method shown. Binding seen in cells or lysates may run through a third protein. A yes stands for co-enrichment or nearness to the bait. Other partners may have been found.
Target: GFP-tagged NF-kappa-B-activating protein-like (NKAPL) (human) (UniProt Q5M9Q1)
Experiment: affinity purification with mass spectrometry; co-immunoprecipitation with a GFP antibody from A549 cells, proteins identified by mass spectrometry

The chains behind the UniProt entries cited, without tags or fusion partners.
UniProt Q5M9Q1: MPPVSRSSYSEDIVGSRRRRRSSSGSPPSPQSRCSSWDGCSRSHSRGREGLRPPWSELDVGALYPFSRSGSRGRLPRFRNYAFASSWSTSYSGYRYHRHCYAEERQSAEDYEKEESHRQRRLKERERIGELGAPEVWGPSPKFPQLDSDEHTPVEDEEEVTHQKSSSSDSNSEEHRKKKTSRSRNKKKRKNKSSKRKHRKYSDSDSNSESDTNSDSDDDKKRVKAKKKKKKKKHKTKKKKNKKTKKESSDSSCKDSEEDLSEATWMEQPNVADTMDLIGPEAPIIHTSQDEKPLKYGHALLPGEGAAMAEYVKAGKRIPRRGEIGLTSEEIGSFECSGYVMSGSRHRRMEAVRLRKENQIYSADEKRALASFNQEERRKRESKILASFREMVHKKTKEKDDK
UniProt P19474: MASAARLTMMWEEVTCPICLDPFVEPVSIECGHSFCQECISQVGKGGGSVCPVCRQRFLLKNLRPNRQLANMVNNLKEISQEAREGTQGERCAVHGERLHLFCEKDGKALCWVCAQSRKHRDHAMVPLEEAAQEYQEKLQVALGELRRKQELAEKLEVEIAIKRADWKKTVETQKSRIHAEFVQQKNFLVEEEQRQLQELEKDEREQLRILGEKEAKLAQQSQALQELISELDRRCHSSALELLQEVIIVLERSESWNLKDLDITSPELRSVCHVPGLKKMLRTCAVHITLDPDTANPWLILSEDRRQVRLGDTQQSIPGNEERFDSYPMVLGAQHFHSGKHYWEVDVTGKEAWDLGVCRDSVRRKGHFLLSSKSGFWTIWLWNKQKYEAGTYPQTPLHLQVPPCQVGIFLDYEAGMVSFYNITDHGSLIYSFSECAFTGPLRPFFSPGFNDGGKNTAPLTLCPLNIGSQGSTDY

With “tripartite motif-containing 21 (TRIM21) (from UniProt P19474 1-475)” the binding was “binds”.

— article PMC12221590
